Measurements as given in the supplement of paper PMC3334620.
The full ranking holds about 33,000 sequences; the median of “E-score (-0.5 to 0.5)” is about -0.0034, and the highest 2% start at about 0.25. Some of the results follow.

target: T1, Yap3 (UniProt P38749); test: PBM E-score (8-mer binding enrichment) (E-score (-0.5 to 0.5)); higher = stronger / more preferred TF binding; conditions: protein concentration: 100 nM; construct: GST-full length
T1 sequence: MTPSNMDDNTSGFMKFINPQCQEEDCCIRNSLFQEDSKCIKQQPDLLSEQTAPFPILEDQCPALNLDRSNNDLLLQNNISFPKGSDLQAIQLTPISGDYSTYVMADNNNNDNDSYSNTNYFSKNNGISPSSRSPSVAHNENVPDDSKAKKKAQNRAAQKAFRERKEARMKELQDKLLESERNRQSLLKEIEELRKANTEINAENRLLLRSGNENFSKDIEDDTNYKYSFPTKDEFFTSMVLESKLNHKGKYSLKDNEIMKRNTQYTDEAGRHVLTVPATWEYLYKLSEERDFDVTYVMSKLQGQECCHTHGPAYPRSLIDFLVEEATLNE
Method: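 Universal 'all 10-mer' protein binding microarrays (Agilent AMADID 015681) probed with GST-tagged S. cerevisiae TFs (full-length or DBD) made by in vitro transcription/translation (PURExpress), about 100-200 nM. Bound TF was detected with fluorescent anti-GST. Each ungapped 8-mer (which stands for itself and its reverse complement) is scored by the PBM enrichment score (E-score), a modified Wilcoxon-Mann-Whitney statistic from -0.5 to +0.5, computed with the Universal PBM Analysis Suite. Scale: above 0.35 generally sequence-specific binding.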

Row | Sequence | PBM E-score
1 | CGTAACAC | 0.135
2 | AGCGATAA | 0.0176
3 | CGTTGAAC | -0.07
4 | GGGTGGTA | -0.0891
5 | ATATGGTG | 0.105
6 | GCTTCCGA | 0.0118
7 | CTCTGTAA | -0.0654
8 | ACCCCCAG | -0.359
9 | GTGAATTA | 0.233
10 | GACCAGTA | -0.157
11 | CCAACTTC | -0.106
12 | ACACTCTA | 0.0899
13 | CATCCTAG | -0.0476
14 | AGGAAGAG | -0.185
15 | AGGTCTCA | -0.0409
16 | ATCGTACA | 0.121
17 | CGGAATAC | 0.115
18 | GAGAGTGA | 0.0641
19 | AAATGTCA | 0.00064
20 | ACCCGTCT | -0.254
21 | TCCTCACA | -0.106
22 | TACTAAAA | 0.255
23 | ACGGAGAG | -0.0434
24 | ACTCCAGA | -0.173
25 | GCCCGGGC | -0.175

Part of the list above, reformatted.
Row	Sequence	PBM E-score
4	GGGTGGTA	-0.0891
16	ATCGTACA	0.121
24	ACTCCAGA	-0.173

Later entries:

Row | Sequence | PBM E-score
26 | GCGTGTCA | 0.126
27 | CTTGAAAC | 0.177
28 | GACACCTC | -0.0165
29 | CACTCTTA | 0.0336
30 | ATGCGCAC | 0.0993
31 | AGAACGAT | 0.061
32 | ACTAGTAG | 0.107
33 | CTTCGACA | -0.104
34 | AAAGCGTG | 0.0323
35 | AGGGCGAA | -0.0689
36 | CAAACGAC | 0.1
37 | CCAGCCCA | -0.301
38 | CCTGAGGC | -0.294
39 | AGCCCGCG | -0.157
40 | AATGTATG | 0.0768
41 | ATTTTTTA | 0.255
42 | GGGAAACA | 0.0457
43 | CCGAACGA | 0.124
44 | GACCGGAA | -0.0372
45 | CATCCATG | -0.0435
46 | GATCGCCA | 0.0308
47 | TGTCGGAA | -0.0152
48 | CAGTATAG | 0.0993
49 | AAAGATGA | 0.144
50 | CACACGGC | -0.195

An excerpt of these results, tab-delimited:
Row	Sequence	PBM E-score
26	GCGTGTCA	0.126
28	GACACCTC	-0.0165
34	AAAGCGTG	0.0323
35	AGGGCGAA	-0.0689
38	CCTGAGGC	-0.294
47	TGTCGGAA	-0.0152
50	CACACGGC	-0.195

(list continues)

Row | Sequence | PBM E-score
51 | ACTAAATC | 0.198
52 | CAAAACGC | 0.0782
53 | CGCGCGCC | 0.107
54 | AAGATGAC | 0.162
55 | CAATCACC | 0.00363
56 | GGAAGTGA | 0.0561
57 | AGATTGAG | 0.0149
58 | GCCTGCGA | -0.175
59 | CGTGTTTA | 0.0506
60 | CGCGGACA | 0.0399
61 | AACGGGGA | -0.116
62 | GCCAAGGA | -0.241
63 | CGCTTTAC | -0.00957
64 | CTGTTAGC | -0.121
65 | GCGGGAGA | -0.127
66 | GCAATTGA | 0.0129
67 | AATGAACT | 0.196
68 | TCATCCAA | 0.135
69 | GAGTCAAC | -0.125
70 | AAGGATAT | 0.125
71 | TGAGTGCA | 0.0109
72 | AAGAAGGA | 0.0372
73 | AATTAGGA | 0.145
74 | AATTTTTA | 0.252
75 | AACACCCG | 0.0846

Row | Sequence | PBM E-score
76 | ACACCGCA | -0.00559
77 | CCCGCAAG | -0.276
78 | CCAAGGCG | -0.11
79 | ATAAGTAC | 0.197
80 | ACAGAGGC | -0.134
81 | CCGCAGAC | -0.19
82 | CGTTTTTC | 0.0598
83 | GACACCGC | -0.169
84 | ATTAAGGG | -0.209
85 | ACACTCAG | -0.0268
86 | AGGAAATA | 0.254
87 | CTTCACCA | -0.0899
88 | AAAAAAGG | 0.121
89 | CTGAAATC | 0.0111
90 | CTCTAGGA | -0.233
91 | ACAGTGTC | -0.099
92 | TGTCAAAA | 0.0917
93 | ATTTTGGA | 0.208
94 | CACTTCCC | -0.0568
95 | AATTGTAT | 0.0992
96 | CAGGACAA | 0.143
97 | GAAAATCA | 0.132
98 | CCCACGTA | 0.0159
99 | AGTCATGC | -0.0461
100 | CCGTACGA | -0.0152

Row | Sequence | PBM E-score
101 | CCGGCCGC | -0.21
102 | AGGAACCA | -0.0185
103 | TCTAACAA | 0.0986
104 | TCCCGGCA | -0.21
105 | CCAATCAC | -0.00032
106 | CAAGAAAG | 0.0675
107 | CTTGTATA | 0.127
108 | CCACCCCC | -0.309
109 | GTCTGTGA | 0.0713
110 | AGTACTGC | -0.0168
111 | ATGTGCTG | 0.0962
112 | AGCCCTGA | -0.245
113 | AGGAATCA | 0.137
114 | GTTGTGTA | 0.173
115 | CCTTTGCG | -0.00088
116 | AATTCTAT | 0.0936
117 | GGCCCGTA | -0.172
118 | ACTGAATC | -0.0833
119 | GAGTCGTA | 0.0658
120 | CCAATGAC | -0.0507
121 | TAACCCCA | -0.133
122 | GCATCGAC | -0.0451
123 | CGGCCACC | -0.222
124 | CTTCCGAA | -0.108
125 | AGGACACA | 0.0983

Row | Sequence | PBM E-score
126 | GATGACGA | 0.201
127 | TCCTAAAA | -0.115
128 | CACCAGAA | -0.106
129 | GATCGTTA | 0.055
130 | CCAGGCGA | -0.29
131 | ATCAGCTG | 0.195
132 | ATACCAAC | 0.202
133 | AATTGCTG | 0.15
134 | ACACGGCT | 0.0307
135 | ATGCGGCC | -0.143
136 | GTCAGACA | -0.015
137 | GGAGACGA | 0.117
138 | CCCTTGCA | -0.162
139 | CATACGCG | 0.0267
140 | GCCATGAA | -0.0625
141 | ATATTTAG | 0.194
142 | ATAGCATC | 0.0327
143 | AATTTCGC | 0.189
144 | ATACGGCG | 0.105
145 | GATCCGGA | -0.0561
146 | TTAGGAAA | 0.0906
147 | AAGCTCCA | -0.0626
148 | ACCGGCCC | -0.398
149 | CTAGAAGA | -0.0684
150 | CGCCAGAA | -0.0765

Looked up one by one from the entries so far (2):
Row | Sequence | PBM E-score
76 | ACACCGCA | -0.00559
44 | GACCGGAA | -0.0372

(list continues)

Row | Sequence | PBM E-score
151 | CATTCCAA | 0.0267
152 | ATACACAG | 0.163
153 | GGGTTATA | -0.173
154 | CATAAAGC | -0.0485
155 | TGGGGCAA | -0.0325
156 | AGGAATAC | 0.0328
157 | GCGGTCGA | 0.0757
158 | CGGGTATC | -0.0443
159 | ACATAAAG | 0.113
160 | AGCAGCCC | -0.309
161 | GGGCTCTA | -0.147
162 | TATGCAGA | 0.0525
163 | CATTAAGA | 0.0516
164 | CGATATGA | -0.0173
165 | GTAAGTGA | 0.142
166 | ACTTGCTA | -0.0697
167 | ACAGGTTC | -0.0416
168 | AAGTAGGA | 0.0486
169 | CGATACCG | -0.00692
170 | CCCATCGA | -0.0875
171 | GGTCGGAA | -0.0211
172 | AGGACGTA | -0.0964
